The text below walks through data of patent US11230581B2, “Peptides and combination of peptides for use in immunotherapy against ovarian cancer and other cancers” (Immatics Biotechnologies GmbH, priority 2015, dated 2022).

For one data set, the system named is ovarian cancer samples. The data set is described as follows: Relative LC-MS quantitation of HLA-presented peptides: presentation and over-presentation on ovarian cancer vs a panel of normal tissues (presentation score). Further details: species or system human; key: +++: very highly over-presented on tumors compared to a panel of normal tissues; ++: highly over-presented on tumors compared to a panel of normal tissues; +: over-presented on tumors compared to a panel of normal tissues. Conditions: over-presentation on tumors compared to a panel of normal tissues.

The test system of a further data set is additional tumor types. The data set can be described thus: LC-MS detection and over-presentation of the peptides on additional tumor types, cell lines and primary cultures. The settings on record: for Other relevant organs/ cancerous diseases: Table 4A: additional tumor types on which the peptide was found, over-presented on more than 5% of measured tumor samples, or presented on more than 5% with ratio of geometric means tumor vs normal tissues larger than 3; for Additional organs/cancerous diseases: amendment of Table 4: additional tumor types showing over-presentation (including specific presentation) on more than 5% of measured tumor samples, or presentation on more than 5% with ratio of geometric means tumor vs normal tissues larger than 3. Further details: species or system human.

With “54 (SLLEQGKEPWMV; listed as Homo sapiens) [compound 54]”, in the data set on ovarian cancer samples, the “Peptide Presentation (presentation score)” value (“Peptide Presentation” below) is on record as “+++”. For the same substance, in the data set on additional tumor types, the “Other relevant organs/ cancerous diseases” value is recorded as “SCLC, HCC, Gallbladder Cancer, Bile Duct Cancer” and the Additional organs/cancerous diseases entry is recorded as “NSCLC, CLL”.
As to “55 (SLLDLETLSL; listed as Homo sapiens) [compound 55]”, the “Peptide Presentation” value with ovarian cancer samples was “+++”. Moreover, in the data set with additional tumor types, the “Other relevant organs/ cancerous diseases” value was “SCLC”.
On to “56 (KLYEGIPVLL; listed as Homo sapiens) [compound 56]”, for which, in the data set on ovarian cancer samples, the “Peptide Presentation” value was “+++”. Besides, in the data set on additional tumor types, the “Other relevant organs/ cancerous diseases” value is “BrCa”.
As for “57 (TLAELQPPVQL; listed as Homo sapiens) [compound 57]”, the “Peptide Presentation” value in the data set with ovarian cancer samples is “+++”. Moreover, in the data set on additional tumor types, the “Other relevant organs/ cancerous diseases” value is “NSCLC, SCLC, HCC, Leukemia, Melanoma, Esophageal Cancer”; the Additional organs/cancerous diseases entry was “CLL, Urinary Bladder Cancer, Uterine Cancer, Gallbladder Cancer and Bile Duct Cancer, NHL, HNSCC”.
For the substance “59 (IMEDIILTL; listed as Homo sapiens) [compound 59]”, the “Peptide Presentation” value with ovarian cancer samples is recorded as “+++”. Further, in the data set with additional tumor types, the “Other relevant organs/ cancerous diseases” value is reported as “SCLC, Leukemia, BrCa”.
In the case of “60 (SLTIDGIYYV; listed as Homo sapiens) [compound 60]”, the “Peptide Presentation” value in the data set with ovarian cancer samples is given as “+++”. In addition, in the data set with additional tumor types, the “Other relevant organs/ cancerous diseases” value is listed as “SCLC, Prostate, Leukemia” and the Additional organs/cancerous diseases entry was “BRCA, Uterine Cancer”.
Consider “61 (FLQGYQLHL; listed as Homo sapiens) [compound 61]”, for which, in the data set on ovarian cancer samples, the “Peptide Presentation” value is listed as “+++”. In the data set with additional tumor types, the “Other relevant organs/ cancerous diseases” value is listed as “NSCLC, SCLC, BrCa, Melanoma, Esophageal Cancer”; the Additional organs/cancerous diseases result was “Urinary Bladder Cancer, Uterine Cancer, Gallbladder Cancer and Bile Duct Cancer, NHL, HNSCC”.
“62 (VLLDVSAGQLLM; listed as Homo sapiens) [compound 62]”: the “Peptide Presentation” value in the data set with ovarian cancer samples is reported as “+++”. For the same substance, the “Other relevant organs/ cancerous diseases” value in the data set with additional tumor types is “NSCLC, Melanoma”.
Turning to “63 (YLLPSGGSVTL; listed as Homo sapiens) [compound 63]”, the “Peptide Presentation” value with ovarian cancer samples was “+++”. For the same substance, in the data set on additional tumor types, the “Other relevant organs/ cancerous diseases” value is given as “HCC, Melanoma, Esophageal Cancer”; the Additional organs/cancerous diseases result is “Gallbladder Cancer and Bile Duct Cancer, HNSCC”.
For “64 (YAAPGGLIGV; listed as Homo sapiens) [compound 64]”, the “Peptide Presentation” value with ovarian cancer samples is reported as “+”. Moreover, in the data set on additional tumor types, the “Other relevant organs/ cancerous diseases” value is reported as “HCC, PC, Melanoma, Esophageal Cancer, Gallbladder Cancer, Bile Duct Cancer” and the Additional organs/cancerous diseases result is given as “NSCLC, SCLC, CLL, BRCA, Urinary Bladder Cancer, Uterine Cancer, AML, NHL, HNSCC”.
In the case of “65 (LKVNQGLESL; listed as Homo sapiens) [compound 65]”, in the data set on ovarian cancer samples, the “Peptide Presentation” value is “+++”. Besides, in the data set with additional tumor types, the “Other relevant organs/ cancerous diseases” value was “NSCLC, SCLC, PC, Leukemia, BrCa, Esophageal Cancer”; the Additional organs/cancerous diseases entry was “Melanoma, Gallbladder Cancer and Bile Duct Cancer, AML, NHL”.
In the case of “67 (TLLAEALVTV; listed as Homo sapiens) [compound 67]”, in the data set on ovarian cancer samples, the “Peptide Presentation” value was “+++”. Also, the Additional organs/cancerous diseases entry in the data set on additional tumor types is “SCLC”.
With “68 (SLMELPRGLFL; listed as Homo sapiens) [compound 68]”, the “Peptide Presentation” value in the data set on ovarian cancer samples is given as “+++”. The “Other relevant organs/ cancerous diseases” value in the data set on additional tumor types is recorded as “Brain Cancer”.
Regarding “69 (FQLDPSSGVLVTV; listed as Homo sapiens) [compound 69]”, the “Peptide Presentation” value in the data set with ovarian cancer samples is reported as “+++”. In addition, in the data set with additional tumor types, the “Other relevant organs/ cancerous diseases” value is “Esophageal Cancer” and the Additional organs/cancerous diseases result is given as “HNSCC”.
Take “71 (GILARIASV; listed as Homo sapiens) [compound 71]”: the “Peptide Presentation” value in the data set on ovarian cancer samples was “+++”. In addition, the Additional organs/cancerous diseases entry in the data set on additional tumor types is “AML, NHL”.
Take “72 (SLLELDGINL; listed as Homo sapiens) [compound 72]”: in the data set on ovarian cancer samples, the “Peptide Presentation” value is listed as “+++”. In the data set with additional tumor types, the “Other relevant organs/ cancerous diseases” value is listed as “NSCLC, SCLC, Prostate” and the Additional organs/cancerous diseases result was “BRCA, Uterine Cancer”.
For “73 (NIFDLQIYV; listed as Homo sapiens) [compound 73]”, the “Peptide Presentation” value in the data set with ovarian cancer samples is “+++”. Besides, in the data set on additional tumor types, the Additional organs/cancerous diseases entry was “BRCA”.
Regarding “74 (ALLDPEVLSIFV; listed as Homo sapiens) [compound 74]”, in the data set on ovarian cancer samples, the “Peptide Presentation” value is reported as “+++”. In addition, in the data set on additional tumor types, the “Other relevant organs/ cancerous diseases” value is “NSCLC, Leukemia, Melanoma”.
“75 (GLLEVMVNL; listed as Homo sapiens) [compound 75]”: the “Peptide Presentation” value in the data set on ovarian cancer samples is “+++”. For the same substance, in the data set on additional tumor types, the “Other relevant organs/ cancerous diseases” value was “SCLC”; the Additional organs/cancerous diseases entry is “Gallbladder Cancer and Bile Duct Cancer”.
As for “76 (ILIDSIYKV; listed as Homo sapiens) [compound 76]”, the “Peptide Presentation” value in the data set with ovarian cancer samples is recorded as “+++”. Further, in the data set with additional tumor types, the “Other relevant organs/ cancerous diseases” value is recorded as “SCLC, CRC, BrCa” and the Additional organs/cancerous diseases entry is on record as “Uterine Cancer”.
“77 (ILVEADGAWVV; listed as Homo sapiens) [compound 77]”: the “Peptide Presentation” value in the data set on ovarian cancer samples is reported as “+++”. In addition, in the data set with additional tumor types, the “Other relevant organs/ cancerous diseases” value is given as “Melanoma, Esophageal Cancer” and the Additional organs/cancerous diseases entry is “BRCA, Uterine Cancer, AML, NHL”.
As for “78 (SLFSSLEPQIQPV; listed as Homo sapiens) [compound 78]”, the “Peptide Presentation” value with ovarian cancer samples was “+++”. Further, the Additional organs/cancerous diseases entry with additional tumor types was “CLL, Melanoma, Urinary Bladder Cancer, AML, HNSCC”.
Consider “79 (SLFIGEKAVLL; listed as Homo sapiens) [compound 79]”, for which the “Peptide Presentation” value in the data set with ovarian cancer samples is “++”. In addition, in the data set with additional tumor types, the “Other relevant organs/ cancerous diseases” value was “NSCLC, SCLC, CRC, Leukemia, Esophageal Cancer, Urinary bladder Cancer”; the Additional organs/cancerous diseases entry was “CLL, BRCA, Melanoma, Gallbladder Cancer and Bile Duct Cancer, AML, NHL, HNSCC”.
Consider “82 (FLSSVTYNL; listed as Homo sapiens) [compound 82]”, for which, in the data set on ovarian cancer samples, the “Peptide Presentation” value is on record as “+++”. Moreover, in the data set with additional tumor types, the Additional organs/cancerous diseases entry was “Melanoma”.
Regarding “83 (ILAPTVMMI; listed as Homo sapiens) [compound 83]”, in the data set on ovarian cancer samples, the “Peptide Presentation” value is on record as “+++”. Moreover, the Additional organs/cancerous diseases entry in the data set on additional tumor types is reported as “Melanoma”.
Taken in the same sequence, the figures for “84 (VTFGEKLLGV; listed as Homo sapiens) [compound 84]” were “+++” and “Melanoma”.
As to “86 (NLIGKIENV; listed as Homo sapiens) [compound 86]”, in the data set on ovarian cancer samples, the “Peptide Presentation” value is on record as “+”. Besides, in the data set on additional tumor types, the “Other relevant organs/ cancerous diseases” value is reported as “Colon, Rectum”.
In the case of “87 (ALPEAPAPLLPHIT; listed as Homo sapiens) [compound 87]”, the “Peptide Presentation” value with ovarian cancer samples is “+++”. In addition, the “Other relevant organs/ cancerous diseases” value in the data set on additional tumor types was “HCC, PC, Urinary bladder Cancer, Gallbladder Cancer, Bile Duct Cancer”.
In the case of “88 (FLLVGDLMAV; listed as Homo sapiens) [compound 88]”, the “Peptide Presentation” value in the data set with ovarian cancer samples is listed as “+++”. Further, in the data set with additional tumor types, the “Other relevant organs/ cancerous diseases” value was “SCLC” and the Additional organs/cancerous diseases entry is “Melanoma”.
Regarding “91 (IMQDFPAEIFL; listed as Homo sapiens) [compound 91]”, the “Peptide Presentation” value in the data set with ovarian cancer samples is “+++”. Besides, in the data set with additional tumor types, the “Other relevant organs/ cancerous diseases” value was “SCLC”; the Additional organs/cancerous diseases result was “CLL, BRCA, Melanoma, Gallbladder Cancer and Bile Duct Cancer, AML, NHL, HNSCC”.
For “92 (YLIPFTGIVGL; listed as Homo sapiens) [compound 92]”, in the data set with ovarian cancer samples, the “Peptide Presentation” value is listed as “+++”. Also, in the data set on additional tumor types, the “Other relevant organs/ cancerous diseases” value is “SCLC, HCC, Leukemia, Melanoma” and the Additional organs/cancerous diseases result is recorded as “CLL, AML, NHL, HNSCC”.
With “93 (LLQAIKLYL; listed as Homo sapiens) [compound 93]”, the “Peptide Presentation” value in the data set with ovarian cancer samples is listed as “+++”. Also, in the data set on additional tumor types, the “Other relevant organs/ cancerous diseases” value is given as “BrCa”; the Additional organs/cancerous diseases result was “Urinary Bladder Cancer, Gallbladder Cancer and Bile Duct Cancer”.
In the case of “94 (YLIDIKTIAI; listed as Homo sapiens) [compound 94]”, the “Peptide Presentation” value in the data set on ovarian cancer samples is on record as “+++”. Moreover, in the data set with additional tumor types, the “Other relevant organs/ cancerous diseases” value is “HCC” and the Additional organs/cancerous diseases entry is given as “SCLC, Melanoma, Urinary Bladder Cancer”.
For “97 (SLINGSFLV; listed as Homo sapiens) [compound 97]”, the “Peptide Presentation” value in the data set on ovarian cancer samples is on record as “+++”. In the data set on additional tumor types, the “Other relevant organs/ cancerous diseases” value was “NSCLC, RCC, CRC, HCC, PC, Melanoma, Esophageal Cancer”; the Additional organs/cancerous diseases entry was “CLL, BRCA, Urinary Bladder Cancer, Uterine Cancer, Gallbladder Cancer and Bile Duct Cancer”.
As for “98 (LIIDQADIYL; listed as Homo sapiens) [compound 98]”, the “Peptide Presentation” value in the data set on ovarian cancer samples is recorded as “+++”. In the data set on additional tumor types, the “Other relevant organs/ cancerous diseases” value is given as “NSCLC, SCLC, RCC, CRC, HCC, Leukemia, Melanoma, Esophageal Cancer”; the Additional organs/cancerous diseases result is “CLL, Urinary Bladder Cancer, Gallbladder Cancer and Bile Duct Cancer, AML, NHL”.
For the substance “100 (YLLSTNAQL; listed as Homo sapiens) [compound 100]”, in the data set with ovarian cancer samples, the “Peptide Presentation” value is given as “+++”. For the same substance, in the data set on additional tumor types, the Additional organs/cancerous diseases result is “Urinary Bladder Cancer”.
Take “101 (ILVGGGALATV; listed as Homo sapiens) [compound 101]”: the “Peptide Presentation” value with ovarian cancer samples was “+++”. Also, the “Other relevant organs/ cancerous diseases” value in the data set on additional tumor types is reported as “Melanoma, Urinary bladder Cancer”.
Take “102 (YLFESEGLVL; listed as Homo sapiens) [compound 102]”: the “Peptide Presentation” value in the data set on ovarian cancer samples is reported as “+++”. Moreover, the Additional organs/cancerous diseases entry in the data set on additional tumor types is on record as “CLL, Melanoma”.
